Laboratory results published in paper PMC3827166.
No constants are given. Whether binding was seen depends on the method and setting. Binding seen in cells or lysates may run through a third protein. A yes stands for co-enrichment or nearness to the bait. Other partners may have been found.

Amino acid sequences for entries named in this document (tags omitted).
UniProt Q9JLT0: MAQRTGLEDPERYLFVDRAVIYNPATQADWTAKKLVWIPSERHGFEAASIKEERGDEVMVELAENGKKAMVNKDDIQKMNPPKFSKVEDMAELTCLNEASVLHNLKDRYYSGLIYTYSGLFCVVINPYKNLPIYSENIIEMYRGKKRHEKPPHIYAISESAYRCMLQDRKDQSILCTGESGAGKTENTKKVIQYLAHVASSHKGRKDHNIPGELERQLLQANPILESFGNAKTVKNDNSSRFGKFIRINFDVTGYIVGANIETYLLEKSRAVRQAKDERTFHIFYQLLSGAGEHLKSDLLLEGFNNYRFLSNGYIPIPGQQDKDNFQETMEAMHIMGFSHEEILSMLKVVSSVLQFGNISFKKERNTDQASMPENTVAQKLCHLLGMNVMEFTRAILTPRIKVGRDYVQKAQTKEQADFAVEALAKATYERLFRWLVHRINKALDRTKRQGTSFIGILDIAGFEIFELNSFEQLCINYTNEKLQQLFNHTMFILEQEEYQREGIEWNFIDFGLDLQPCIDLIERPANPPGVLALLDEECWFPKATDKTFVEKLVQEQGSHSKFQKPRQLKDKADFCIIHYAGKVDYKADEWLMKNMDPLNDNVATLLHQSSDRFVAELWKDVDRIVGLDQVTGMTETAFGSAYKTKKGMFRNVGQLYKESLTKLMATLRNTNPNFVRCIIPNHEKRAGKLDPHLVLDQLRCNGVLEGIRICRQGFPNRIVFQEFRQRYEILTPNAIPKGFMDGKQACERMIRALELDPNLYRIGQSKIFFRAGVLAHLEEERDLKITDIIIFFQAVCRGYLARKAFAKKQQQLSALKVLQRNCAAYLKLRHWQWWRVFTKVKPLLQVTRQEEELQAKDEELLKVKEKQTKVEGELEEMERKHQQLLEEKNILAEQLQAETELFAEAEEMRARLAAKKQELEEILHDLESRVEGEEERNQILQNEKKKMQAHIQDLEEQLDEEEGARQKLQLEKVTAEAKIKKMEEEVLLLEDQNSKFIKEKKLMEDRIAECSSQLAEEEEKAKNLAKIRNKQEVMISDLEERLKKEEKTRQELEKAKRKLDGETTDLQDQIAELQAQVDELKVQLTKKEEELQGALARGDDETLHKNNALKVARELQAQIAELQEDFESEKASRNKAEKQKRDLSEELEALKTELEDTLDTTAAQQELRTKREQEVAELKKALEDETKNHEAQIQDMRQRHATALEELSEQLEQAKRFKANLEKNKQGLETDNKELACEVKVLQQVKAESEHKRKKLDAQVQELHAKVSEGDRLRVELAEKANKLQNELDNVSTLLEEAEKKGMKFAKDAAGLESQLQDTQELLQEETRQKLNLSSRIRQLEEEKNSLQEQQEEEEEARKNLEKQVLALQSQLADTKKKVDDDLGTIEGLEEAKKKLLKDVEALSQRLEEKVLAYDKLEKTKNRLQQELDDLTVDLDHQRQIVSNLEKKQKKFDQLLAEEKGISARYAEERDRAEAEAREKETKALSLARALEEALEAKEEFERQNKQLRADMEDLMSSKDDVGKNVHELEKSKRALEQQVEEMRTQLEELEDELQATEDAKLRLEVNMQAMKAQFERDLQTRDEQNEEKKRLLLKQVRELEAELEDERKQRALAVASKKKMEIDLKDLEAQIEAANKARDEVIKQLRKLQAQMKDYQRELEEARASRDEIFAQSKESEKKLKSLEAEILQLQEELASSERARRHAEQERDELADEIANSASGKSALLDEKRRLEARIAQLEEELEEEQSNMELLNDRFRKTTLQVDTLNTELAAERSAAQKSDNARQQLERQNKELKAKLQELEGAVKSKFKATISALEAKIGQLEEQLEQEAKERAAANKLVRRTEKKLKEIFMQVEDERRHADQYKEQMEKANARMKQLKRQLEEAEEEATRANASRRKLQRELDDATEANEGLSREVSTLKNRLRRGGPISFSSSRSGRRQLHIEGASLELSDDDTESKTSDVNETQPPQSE

Target: T1, four-and-a-half LIM protein-1 (FHL1) (rat (endogenous in L6GNR4 cells and E17 rat embryo lower limbs)) (UniProt Q9WUH4)
T1 sequence: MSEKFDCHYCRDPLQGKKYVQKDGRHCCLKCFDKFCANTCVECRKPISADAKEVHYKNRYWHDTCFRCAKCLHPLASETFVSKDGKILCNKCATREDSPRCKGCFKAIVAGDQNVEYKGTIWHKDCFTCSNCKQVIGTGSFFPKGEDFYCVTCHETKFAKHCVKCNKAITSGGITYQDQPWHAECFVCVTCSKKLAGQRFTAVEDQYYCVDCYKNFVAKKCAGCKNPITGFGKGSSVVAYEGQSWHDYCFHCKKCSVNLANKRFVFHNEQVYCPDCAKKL
Experiment: affinity purification with mass spectrometry; anti-FHL1 antibody on protein A/G beads, L6GNR4 total protein, overnight at 4°C, RIPA and solubilization buffer washes; SDS-PAGE, CBB-stained bands excised, MALDI-TOF/TOF; mouse IgG and GAPDH antibody as negative controls

non-muscle myosin IIB (Myh10) (from UniProt Q9JLT0 1-1976)
binding: binds
